Cell number after 72 h of treatment

Data from the primary screen of doi:10.1371/journal.pone.0140310, rounded.

Drug key:
lenalidomide, 1000 nM: Nc1cccc2c1CN(C1CCC(=O)NC1=O)C2=O (stereo not given)
crizotinib, 200 nM: C[C@@H](Oc1cc(-c2cnn(C3CCNCC3)c2)cnc1N)c1c(Cl)ccc(F)c1Cl
bexarotene, 2000 nM: C=C(c1ccc(C(=O)O)cc1)c1cc2c(cc1C)C(C)(C)CCC2(C)C
dovitinib, 100 nM: CN1CCN(c2ccc3nc(-c4c(N)c5c(F)cccc5[nH]c4=O)[nH]c3c2)CC1
MK-1775, 20 nM: C=CCn1c(=O)c2cnc(Nc3ccc(N4CCN(C)CC4)cc3)nc2n1-c1cccc(C(C)(C)O)n1
nilutamide, 1000 nM: CC1(C)NC(=O)N(c2ccc([N+](=O)[O-])c(C(F)(F)F)c2)C1=O
AZD7762, 20 nM: NC(=O)Nc1cc(-c2cccc(F)c2)sc1C(=O)N[C@H]1CCCNC1
ZM336372, 2000 nM: Cc1ccc(NC(=O)c2cccc(N(C)C)c2)cc1NC(=O)c1ccc(O)cc1

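Human melanoma cell lines in 1,536-well plates were treated with a pair of drugs for 72 h, then fixed, stained and imaged. Values are the number of DAPI-stained nuclei as a percentage of the DMSO control: 100 is no effect, lower means fewer cells. Concentrations were fixed for each drug; these are the lower of two levels, a fifth of the higher. The file gives one value for each pair and line, without errors, so small differences may be noise.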
This is part of the screen, not chosen by result.
A dash means that no value is listed here.

Pair,COLO 792,A2058,A101D,C32,A375
MK-1775 + dovitinib,-,99.7,67.7,96.9,61.5
ZM336372 + nilutamide,-,105,104,91.9,97.2
crizotinib + lenalidomide,-,105,93.1,91.9,107
dovitinib + lenalidomide,85.7,80.1,106,111,78.5
nilutamide + dovitinib,-,99.4,96.0,104,84.5
bexarotene + nilutamide,-,114,99.0,104,93.2
AZD7762 + crizotinib,-,113,95.7,79.8,63.6
AZD7762 + dovitinib,-,106,107,86.7,66.4
dovitinib + crizotinib,113,79.5,87.2,94.2,92.4
crizotinib + MK-1775,-,96.4,75.2,85.2,74.3
ZM336372 + MK-1775,-,93.8,78.6,106,61.0
lenalidomide + ZM336372,-,102,97.2,106,99.4
bexarotene + dovitinib,74.4,69.7,101,84.7,68.1
MK-1775 + lenalidomide,-,102,91.4,118,57.5
ZM336372 + crizotinib,-,84.8,82.5,94.1,86.6
lenalidomide + AZD7762,-,95.6,88.8,89.4,96.9
bexarotene + ZM336372,-,96.3,98.1,102,84.2
MK-1775 + bexarotene,-,96.7,88.8,109,66.7
nilutamide + crizotinib,-,88.6,93.5,90.4,82.3
nilutamide + lenalidomide,-,105,100,117,94.9

2 of the entries, repeated:

Pair	COLO 792	A2058	A101D	C32	A375
MK-1775 + bexarotene	-	96.7	88.8	109	66.7
dovitinib + crizotinib	113	79.5	87.2	94.2	92.4